Data as given in US20190374662A1 (published 2019).
These are yes or no findings as the source states them, for the method shown. Some entries that bind do so weakly or less than the wild type. One block for each molecule: values may come before it.

Sequences of proteins named here, by UniProt entry; tags and fusion partners are left off. A change or cut given only in a name is not applied to a line headed by its entry.
UniProt P06731: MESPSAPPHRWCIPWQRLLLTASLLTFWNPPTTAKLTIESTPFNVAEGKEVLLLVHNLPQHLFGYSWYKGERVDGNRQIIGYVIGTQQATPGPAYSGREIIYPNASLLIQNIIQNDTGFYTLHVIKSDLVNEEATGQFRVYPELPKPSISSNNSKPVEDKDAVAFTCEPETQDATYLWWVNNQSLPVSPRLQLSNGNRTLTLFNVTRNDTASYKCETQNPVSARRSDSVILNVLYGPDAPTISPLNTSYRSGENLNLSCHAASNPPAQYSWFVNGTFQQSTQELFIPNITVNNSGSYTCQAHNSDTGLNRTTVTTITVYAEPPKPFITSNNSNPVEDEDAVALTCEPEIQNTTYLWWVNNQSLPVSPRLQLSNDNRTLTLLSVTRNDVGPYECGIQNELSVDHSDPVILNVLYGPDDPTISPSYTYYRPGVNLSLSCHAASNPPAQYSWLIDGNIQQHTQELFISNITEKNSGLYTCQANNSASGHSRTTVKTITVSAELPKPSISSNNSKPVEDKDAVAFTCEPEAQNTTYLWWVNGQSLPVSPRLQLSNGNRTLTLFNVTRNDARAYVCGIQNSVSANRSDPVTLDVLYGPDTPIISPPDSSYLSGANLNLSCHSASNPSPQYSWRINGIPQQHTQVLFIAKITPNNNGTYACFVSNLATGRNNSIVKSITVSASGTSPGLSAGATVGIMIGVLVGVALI
UniProt P40199: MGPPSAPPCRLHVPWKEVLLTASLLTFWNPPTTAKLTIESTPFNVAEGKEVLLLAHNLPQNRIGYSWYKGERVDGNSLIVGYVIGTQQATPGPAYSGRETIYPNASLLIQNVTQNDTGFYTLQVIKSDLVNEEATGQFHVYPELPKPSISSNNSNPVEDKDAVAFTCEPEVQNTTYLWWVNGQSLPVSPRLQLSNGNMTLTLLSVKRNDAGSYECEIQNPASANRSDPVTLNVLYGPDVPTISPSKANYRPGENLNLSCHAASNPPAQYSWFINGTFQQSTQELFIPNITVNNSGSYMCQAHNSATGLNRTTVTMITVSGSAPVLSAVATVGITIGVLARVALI

What was measured:
[1] = target: CEACAM1 protein (CD66a), full length on cells (human) (UniProt P13688); test: flow cytometry, 50 ug/ml fusion protein, on 0.221/CEACAM1 cells
[2] = target: CEACAM1 protein (CD66a), full length on cells (human) (UniProt P13688); test: flow cytometry on 0.221/CEACAM1 cells (FIG. 30a legend)
[3] = target: CEACAM1 protein (CD66a), full length on cells (human) (UniProt P13688); test: flow cytometry on stably transfected 721.221 cells
[4] = target: CEACAM5 protein on 721.221 cells (human) (UniProt P06731); test: flow cytometry on stably transfected 721.221 cells
[5] = target: CCM6-SL43,44RQ (CEACAM6 with R and Q at positions 43 and 44 instead of S and L) (human) (UniProt P40199); test: flow cytometry on stably transfected 721.221 cells

binding [1]: binds
binding [2]: binds
binding [3]: binds
binding [4]: binds
Molecule: CEACAM1-Ig fusion protein (extracellular portion of CEACAM1 fused to the Fc portion of human IgG1) (from UniProt P13688 35-142) (Fc fusion)

binding [5]: binds
B1: CEACAM1-Ig fusion protein (extracellular portion of CEACAM1 fused to the Fc portion of human IgG1) (Fc fusion)
chain: QLTTESMPFNVAEGKEVLLLVHNLPQQLFGYSWYKGERVDGNRQIVGYAIGTQQATPGPANSGRETIYPNASLLIQNVTQNDTGFYTLQVIKSDLVNEEATGQFHVYP
notes: also called CCM1-Ig; soluble CEACAM1-Ig; not shown: Fc portion of human IgG1
